Data: patent US9957282B2, “Crystalline forms of quinolone analogs and their salts” (Senhwa Biosciences, Inc., priority 2015, dated 2018)
Where a name gives a salt, the structure may show the parent alone. For at least one compound, name, drawing or mass did not settle the structure.

Assay: Stability of the salts (solid forms) stored at elevated temperature (HPLC purity)
Format: physicochemical
Settings: solid form

Row | SMILES | Purity % a/a after 3 days at 45° C. (HPLC) [% a/a] | Purity % a/a after 3 days at 80° C. (HPLC) [% a/a]
1 | Cc1cnc(CNC(=O)c2c(=O)c3ccc(N4CCCN(C)CC4)nc3n3c2sc2ccccc23)cn1 [Maleic Acid] | 97.84 | 93.67
2 | Cc1cnc(CNC(=O)c2c(=O)c3ccc(N4CCCN(C)CC4)nc3n3c2sc2ccccc23)cn1 [L-Malic Acid] |  | 95.67
3 | Cc1cnc(CNC(=O)c2c(=O)c3ccc(N4CCCN(C)CC4)nc3n3c2sc2ccccc23)cn1 [Fumaric Acid] |  | 89.36
4 | Cc1cnc(CNC(=O)c2c(=O)c3ccc(N4CCCN(C)CC4)nc3n3c2sc2ccccc23)cn1 [Citric Acid] |  | 95.17
5 | Cc1cnc(CNC(=O)c2c(=O)c3ccc(N4CCCN(C)CC4)nc3n3c2sc2ccccc23)cn1 [Free Base, 2-(4-Methyl-[1,4]diazepan-1-yl)-5-oxo-5H-7-thia-1,11b-diaza-benzo[c]fluorene-6-carboxylic acid (5-methyl-pyrazin-2-ylmethyl)-amide] |  | 99.67
6 | Cc1cnc(CNC(=O)c2c(=O)c3ccc(N4CCCN(C)CC4)nc3n3c2sc2ccccc23)cn1 [HCl] | 98.48 | 98.71
